PubChem BioAssay AID504808, Drosophila RNAi Screening Center | 2011

- Screen: 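Fly genes required to hold E2F transcription in check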 (primary screen)
- Cells: Drosophila S2 cells
- Knock-down reagent: long dsRNA against Drosophila genes
- Read-out: 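Dual luciferase plate measurements; E2F-specific signal taken as firefly over Renilla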
- Reading the numbers: E2F firefly: higher = more E2F reporter activity; Renilla normaliser: higher = more normaliser reporter signal
- Hit rule: 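Called active if the normalised E2F reporter went up by over 50%; the cutoff is arbitrary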
The deposit covers about 21,000 reagents; this is a random part of those that have a named target and a result. Of all reagents, 18 (0.084%) got an active call. 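Raw counts without plate normalisation, one of two replicates; the ratio scores behind the calls were not deposited.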 A plus sign joins genes that one reagent is predicted to hit. The record does not give: the amount of reagent, the time to read-out.

Gene | dsRNA | E2F firefly, rep 1 | Renilla normaliser, rep 1 | outcome
Twdlalpha (GeneID 326223) | DRSC19914 | 1.37e5 | 6283 | inactive
Taf4 (GeneID 39765) | DRSC11297 | 60625 | 164 | inactive
bin3 (GeneID 35552) | DRSC04919 | 1.44e5 | 4769 | inactive
Gyc88E (GeneID 41825) | DRSC15547 | 1.07e5 | 5524 | inactive
CG14760 (GeneID 35802) | DRSC06495 | 1.42e5 | 4600 | inactive
Sfxn1-3 (GeneID 40552) | DRSC12183 | 1.42e5 | 7833 | inactive
CG7115 (GeneID 34069) | DRSC02000 | 1.54e5 | 4774 | inactive
CG5276 (GeneID 41373) | DRSC15759 | 1.58e5 | 6847 | inactive
dia (GeneID 35340) | DRSC03519 | 91813 | 4416 | inactive
CG42366 (GeneID 34319) | DRSC02760 | 1.39e5 | 4432 | inactive
mle (GeneID 35523) | DRSC04921 | 1.13e5 | 4655 | inactive
CG7016 (GeneID 42968) | DRSC16174 | 1.10e5 | 6000 | inactive
Sec22 (GeneID 31030) | DRSC18538 | 2263 | 680 | inactive
Rme-8 (GeneID 35939) | DRSC07054 | 2853 | 224 | inactive
CG5910 (GeneID 40264) | DRSC11786 | 1.54e5 | 7706 | inactive
awd (GeneID 43739) | DRSC16906 | 1.25e5 | 6283 | inactive
pre-mod(mdg4)-W + pre-mod(mdg4)-Y + mod(mdg4) + 3 more | DRSC16328 | 1.13e5 | 7046 | inactive
Mad (GeneID 33529) | DRSC00759 | 1.55e5 | 4827 | inactive
CG4839 (GeneID 34348) | DRSC02783 | 75692 | 3466 | inactive
CG4839 (GeneID 34348) | DRSC02784 | 1.52e5 | 4874 | inactive
CG1368 (GeneID 32361) | DRSC19537 | 8302 | 848 | inactive
HP1e (GeneID 41108) | DRSC16379 | 1.35e5 | 5828 | inactive
CG12498 (GeneID 31272) | DRSC18635 | 1.24e5 | 5888 | inactive
pn (GeneID 31194) | DRSC18822 | 1726 | 932 | inactive
trsn (GeneID 36110) | DRSC06078 | 1.58e5 | 5993 | inactive
Ube4A (GeneID 33932) | DRSC02004 | 72224 | 3435 | inactive
GluRIIE (GeneID 318623) | DRSC13431 | 86868 | 2515 | inactive
Strn-Mlck (GeneID 36753) | DRSC05032 | 71303 | 3402 | inactive
Strn-Mlck (GeneID 36753) | DRSC05598 | 1.57e5 | 7253 | inactive
Strn-Mlck (GeneID 36753) | DRSC07471 | 1.54e5 | 5009 | inactive
se (GeneID 38973) | DRSC10713 | 97942 | 4093 | inactive
CG6938 (GeneID 39362) | DRSC10752 | 87487 | 3902 | inactive
Nhe1 (GeneID 33167) | DRSC00762 | 90282 | 3625 | inactive
His2B:CG33870 + His2B:CG33868 + His2B:CG33882 + 21 more | DRSC03757 | 74774 | 4271 | inactive
SdhAL (GeneID 39348) | DRSC10539 | 77178 | 3583 | inactive
Cpr49Aa (GeneID 246413) | DRSC07197 | 98733 | 4304 | inactive
RtGEF (GeneID 35306) | DRSC03604 | 1.01e5 | 5179 | inactive
eco (GeneID 38812) | DRSC11006 | 73945 | 4997 | inactive
Ist1 (GeneID 38750) | DRSC09697 | 79189 | 3614 | inactive
CG17404 (GeneID 41482) | DRSC15234 | 1.49e5 | 6899 | inactive
G6P (GeneID 33476) | DRSC00414 | 1.49e5 | 4684 | inactive
Spn42Dc (GeneID 35600) | DRSC05010 | 1.40e5 | 4858 | inactive
Dnaaf4 (GeneID 34547) | DRSC02405 | 1.51e5 | 5410 | inactive
Art8 (GeneID 34528) | DRSC02530 | 1.46e5 | 5150 | inactive
Doc1 (GeneID 39039) | DRSC11146 | 1.08e5 | 3764 | inactive
CG14763 (GeneID 35757) | DRSC06497 | 1.47e5 | 5236 | inactive
ine (GeneID 33659) | DRSC00822 | 90109 | 3475 | inactive
Sec24AB (GeneID 36025) | DRSC06478 | 2640 | 221 | inactive
CG13071 (GeneID 39781) | DRSC09954 | 1.44e5 | 7736 | inactive
CG42361 (GeneID 37936) | DRSC04391 | 1.04e5 | 4490 | inactive
Panx (GeneID 37434) | DRSC04563 | 1.12e5 | 4814 | inactive
Map60 (GeneID 35991) | DRSC07464 | 3075 | 190 | inactive
CG14543 (GeneID 43167) | DRSC14887 | 86852 | 6047 | inactive
PrBP (GeneID 34196) | DRSC03189 | 1.47e5 | 4978 | inactive
Pten (GeneID 43991) | DRSC03402 | 1.48e5 | 5334 | inactive
CG42399 (GeneID 33176) | DRSC00322 | 1.46e5 | 5119 | inactive
CG42399 (GeneID 33176) | DRSC00661 | 1.48e5 | 5697 | inactive

Taken from above:
Gyc88E (GeneID 41825) [DRSC15547], Renilla normaliser, rep 1 → 5524
Value for Sfxn1-3 (GeneID 40552) [DRSC12183] under “outcome”: inactive
CG4839 (GeneID 34348) [DRSC02784], E2F firefly, rep 1 = 1.52e5
Result for CG42399 (GeneID 33176) [DRSC00661] under “outcome”: inactive
For “Renilla normaliser, rep 1”, SdhAL (GeneID 39348) [DRSC10539] reads 3583
Entry of CG13071 (GeneID 39781) [DRSC09954] in “Renilla normaliser, rep 1”: 7736
